# Test results from US10073083B2, “Prophylactic and therapeutic agents for FGFR3 diseases and screening method for the same” (KYOTO UNIVERSITY, priority 2013, dated 2018).
# At least one compound was matched to its structure with a doubt left.
# Tested on: TD-iPSCs
# Assay: Chondrogenic differentiation of TD-iPSCs, cartilaginous extracellular matrix by safranin O staining
# Format: cell-based, human
# Settings: statin 1 μM in cartilage differentiation medium; day 42
# Protocol: The iPS cell lines were transferred to Matrigel (Invitrogen)-coated dishes, then Essential 8 medium (Life Technologies) supplemented with 50 units/ml penicillin and 50 μg/ml streptomycin was added, and the cell lines were cultured for undifferentiated maintenance under the feeder-free conditions. The iPS cell lines formed colonies that consisted of 1 to 2×10^5 cells 10 to 15 days after seeding, and the medium was changed to mesodermal differentiation medium (DMEM/F12 supplemented with 10 ng/ml Wnt3A (R&D), 10 ng/ml activin A (R&D), 1% insulin-transferrin-sodium selenite (Invitrogen), 1% fetal calf serum, 50 units/ml penicillin and 50 μg/ml streptomycin) (day zero of differentiation). Three days after (day 3 of differentiation), the medium was changed to cartilage differentiation medium (DMEM/F12 supplemented with 50 μg/ml ascorbic acid, 10 ng/ml BMP2 (Osteopharma), 10 ng/ml TGFβ (PeproTech), 10 ng/ml GDF5, 1% insulin-transferrin-sodium selenite, 1% FBS, 50 units/ml penicillin and 50 μg/ml streptomycin). […]
# FGFR3 neutralizing antibody was added to the medium during the chondrogenic differentiation of TD-iPSCs to inhibit FGFR3 activity, and chondrocyte formation was assessed. […] The chondrogenic differentiation was performed in the same manner as in Example 2, and the cartilaginous particles were assessed on days 28 and 42 of differentiation. […]
row,SMILES,chondrogenic differentiation / cartilage formation of TD-iPSCs (safranin O)
1,CC[C@H](C)C(=O)O[C@H]1C[C@H](O)C=C2C=C[C@H](C)[C@H](CC[C@@H](O)C[C@@H](O)CC(=O)O)[C@H]21 [pravastatin],rescued abnormal cartilage formation in the TD-iPSC-derived chondrocytes
2,CC(C)n1c(/C=C/C(O)CC(O)CC(=O)O)c(-c2ccc(F)cc2)c2ccccc21 (centres unmarked) [fluvastatin],rescued abnormal cartilage formation in the TD-iPSC-derived chondrocytes
